Experimental data as given in patent US6864224 (BROWN UNIVERSITY RESEARCH FOUNDATION, dated 2005).
Results are given in words; binding and its absence hold for the method and conditions named. Binding seen in cells or lysates may run through a third protein. Some results given as binding are weak or reduced against the parent protein; the word gives no strength.

Legend:
[1] = biological target: endogenous MEK of Rat-1 cells (rat (Rat-1 cells)) (UniProt Q01986); assay: co-immunoprecipitation of endogenous proteins with RKIP antiserum
[2] = biological target: endogenous MEK of Rat-1 cells (rat (Rat-1 cells)) (UniProt Q01986); assay: co-immunoprecipitation of endogenous proteins; also seen in reciprocal immunoprecipitations

B1: endogenous RKIP of Rat-1 cells (other, rat (Rat-1 cells), UniProt P31044 2-187, looked up)
chain: AADISQWAGPLSLQEVDEPPQHALRVDYGGVTVDELGKVLTPTQVMNRPSSISWDGLDPGKLYTLVLTDPDAPSRKDPKFREWHHFLVVNMKGNDISSGTVLSEYVGSGPPKDTGLHRYVWLVYEQEQPLNCDEPILSNKSGDNRGKFKVESFRKKYHLGAPVAGTCFQAEWDDSVPKLHDQLAGK
notes: Endogenous protein in cell lysates
B1 was tested, and the binding [1] was “binds” and the binding [2] was “binds”.
